Test results as given in PubChem BioAssay (Tox21).
“And” between values parts separate entries of the source, which are not always exact repeats. Equal values may be shown once. Inconclusive means that the source gave no clear call. Such entries were picked first, then a sample of the others. For some assays here: Potencies beside an inconclusive call are fits to weak or partial responses and may not hold up. Some compounds were tested as several samples or in several runs, with calls that do not always agree. The source made the active and inactive calls. Unless noted, calls come from the whole dose curve.

The chains behind the UniProt entries cited, without tags or fusion partners. Where a name states a change or a piece, a line headed by the entry shows the natural chain unless it says otherwise.
UniProt P28223, whole entry, looked up: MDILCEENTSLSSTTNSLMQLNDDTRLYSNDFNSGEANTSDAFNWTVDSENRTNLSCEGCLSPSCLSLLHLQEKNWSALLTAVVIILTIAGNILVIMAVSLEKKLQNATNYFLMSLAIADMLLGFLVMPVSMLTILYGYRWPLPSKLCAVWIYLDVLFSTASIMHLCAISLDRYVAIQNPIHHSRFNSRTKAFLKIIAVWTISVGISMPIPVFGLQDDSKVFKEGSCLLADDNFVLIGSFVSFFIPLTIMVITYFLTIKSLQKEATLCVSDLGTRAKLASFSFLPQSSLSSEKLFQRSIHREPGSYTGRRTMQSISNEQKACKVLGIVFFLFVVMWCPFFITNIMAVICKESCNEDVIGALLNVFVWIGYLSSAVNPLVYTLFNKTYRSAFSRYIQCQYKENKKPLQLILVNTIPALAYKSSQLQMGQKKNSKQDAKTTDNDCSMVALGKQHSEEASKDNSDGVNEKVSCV
UniProt P11229: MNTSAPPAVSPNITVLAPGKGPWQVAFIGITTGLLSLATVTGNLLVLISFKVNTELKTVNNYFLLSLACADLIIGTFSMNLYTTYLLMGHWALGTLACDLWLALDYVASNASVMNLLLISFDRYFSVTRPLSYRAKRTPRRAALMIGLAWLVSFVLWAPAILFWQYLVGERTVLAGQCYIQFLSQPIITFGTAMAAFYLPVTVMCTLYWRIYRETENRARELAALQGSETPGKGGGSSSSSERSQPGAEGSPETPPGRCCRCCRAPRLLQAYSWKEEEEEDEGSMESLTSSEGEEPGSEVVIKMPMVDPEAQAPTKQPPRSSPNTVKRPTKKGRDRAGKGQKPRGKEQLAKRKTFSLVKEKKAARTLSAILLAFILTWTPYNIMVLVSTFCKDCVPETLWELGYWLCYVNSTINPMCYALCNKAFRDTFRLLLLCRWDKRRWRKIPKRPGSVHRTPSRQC
UniProt P14416, whole entry, looked up: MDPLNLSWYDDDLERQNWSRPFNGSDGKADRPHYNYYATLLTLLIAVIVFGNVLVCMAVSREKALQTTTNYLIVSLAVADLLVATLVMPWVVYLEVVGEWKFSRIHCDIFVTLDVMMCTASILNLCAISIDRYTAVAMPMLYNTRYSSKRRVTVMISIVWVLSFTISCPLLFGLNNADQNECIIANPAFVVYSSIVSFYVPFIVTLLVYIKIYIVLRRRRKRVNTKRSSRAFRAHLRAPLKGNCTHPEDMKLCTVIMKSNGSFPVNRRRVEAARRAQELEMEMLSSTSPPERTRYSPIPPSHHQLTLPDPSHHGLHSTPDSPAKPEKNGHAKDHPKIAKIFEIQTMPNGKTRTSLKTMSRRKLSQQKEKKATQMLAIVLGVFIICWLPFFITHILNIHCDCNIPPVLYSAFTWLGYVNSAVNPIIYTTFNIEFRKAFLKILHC

Tests used:
[1] = biological target: 5-hydroxytryptamine receptor 2A (Homo sapiens) (UniProt P28223); assay: 5-hydroxytryptamine receptor 2A (HTR2A) small molecule antagonists, cell-based qHTS assay (AID 1963586); settings: HTR2A-CHO cells, DOI-induced calcium flux, fluorescence; series mostly up to 61.5 µM; note: nearly all actives have a fitted effect of over 45% in size
Outline: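 CHO cells stably expressing human HTR2A were plated for 18 h at 37 C, then loaded with calcium dye for 1 h. Compounds were preincubated 5 min at room temperature before DOI (4 nM solution) was added. Kinetic fluorescence was read for 3 min.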

[2] = biological target: 5-hydroxytryptamine receptor 2A (Homo sapiens) (UniProt P28223); assay: 5-hydroxytryptamine receptor 2A (HTR2A) small molecule agonists, cell-based qHTS assay (AID 1963587); settings: HTR2A-CHO cells, calcium flux fluorescence, agonist mode; series mostly up to 76.8 µM; note: nearly all actives have a fitted effect of over 30% in size
Outline: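 CHO cells stably expressing human HTR2A, plated 18 h, loaded with calcium dye 1 h at 37 C. Agonist mode: compounds added and intracellular calcium fluorescence recorded kinetically for 2 min at 1 sec intervals.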

[3] = biological target: Beta-2 adrenergic receptor (Homo sapiens) (UniProt P07550); assay: Adrenergic beta2 receptor (ADRB2) small molecule antagonists, cell-based qHTS assay (AID 1963592); settings: CHO-ADRB2 cells, isoproterenol-stimulated cAMP HTRF ratio, 0.5 h; activity change, negative = inhibition: at 92.4 µM (top of the series) unless noted; note: nearly all actives have a fitted effect of over 50% in size; for activity change, negative = inhibition: % is set by controls: 0 for no effect and ±100 for the full control effect
Outline: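 Assay format: CHO-ADRB2 cells, 18-20hr seeding at 37C/5% CO2, then compound plus 1nM isoproterenol agonist mix for 0.5hr RT. Homogeneous time-resolved fluorescence cAMP detection after 1hr, expressed as 665/615 nm ratio.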

[4] = biological target: Beta-2 adrenergic receptor (Homo sapiens) (UniProt P07550); assay: Adrenergic beta2 receptor (ADRB2) small molecule agonists, cell-based qHTS assay (AID 1963593); settings: CHO-ADRB2 cells, cAMP HTRF, 30 min; activation: at 92.4 µM (top of the series) unless noted;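 for activation: CHO cells stably overexpressing human ADRB2; % is set by controls: 0 for no effect and ±100 for the full control effect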
Outline: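 CHO cells stably over-expressing ADRB2 were plated overnight at 37C, then dosed with compounds plus a stimulation mix containing 100uM IBMX and 25uM Ro-20-1724 for 0.5hr at room temperature. cAMP was measured by HTRF competition, 1hr.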

[5] = biological target: Muscarinic acetylcholine receptor M1 (Homo sapiens) (UniProt P11229); assay: Cholinergic receptor muscarinic 1 (CHRM1) small molecule antagonists, cell-based qHTS assay (AID 1963588); settings: CHRM1-CHO antagonist mode, calcium flux fluorescence; series mostly up to 61.5 µM; note: nearly all actives have a fitted effect of over 40% in size
Outline: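 Compounds were tested at 15 concentrations in three independent runs. Dye-loaded CHRM1-CHO cells were exposed 5 min at room temperature before stimulation by acetylcholine added at 50nM. Intracellular calcium was read kinetically on FDSS for 3 min.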

[6] = cAMP Responsive Elements (CRE) small molecule agonists, cell-based qHTS assay (AID 1963590); settings: CRE-bla HEK293T, beta-lactamase FRET ratio, 3 h; activation: at 92.4 µM (top of the series) unless noted; for activation: % is set by controls: 0 for no effect and ±100 for the full control effect
Outline: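 Agonist mode: compound added to CRE-bla HEK 293T cells (2,000/well, 18 h after plating) for 3 h at 37 C/5% CO2. Reporter activity detected via FRET beta-lactamase substrate, 2 h room-temperature loading.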

[7] = cAMP Responsive Elements (CRE) small molecule antagonists, cell-based qHTS assay (AID 1963591; active = well fitted inhibition curve with a large enough effect in the signal ratio in the repeat runs, not every such curve was filed as active; inconclusive = weak or mixed curves, or effect the other way; the % refers to the signal ratio; for activity change, negative = inhibition: % is set by controls: 0 for no effect and ±100 for the full control effect); settings: CRE-bla HEK293T, beta-lactamase FRET ratio; activity change, negative = inhibition: at 92.4 µM (top of the series) unless noted
Outline: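 Antagonist mode: compounds are added alongside the adenylyl cyclase activator NKH477 (0.25 uM final) to CRE-bla HEK293T cells for 3 h. LiveBLAzer FRET substrate, 2 h at room temperature, reports bla expression.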

[8] = biological target: D(2) dopamine receptor (Homo sapiens) (UniProt P14416); assay: Dopamine D2 receptor (DRD2) small molecule agonists, cell-based qHTS assay (AID 1963594); settings: HEK293-DRD2 cAMP HTRF, agonist mode, 30 min; activation: at 92.4 µM (top of the series) unless noted; note: nearly all actives have a fitted effect of over 35% in size
Outline: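 HEK293 cells stably expressing human DRD2, pre-treated with PDE inhibitor Ro20-1724 (0.1 mM final) and compound 10 min at room temperature, then stimulated with NKH477 (200nM […]) for 30 min. cAMP read by HTRF (665/620 nm).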

[9] = biological target: D(2) dopamine receptor (Homo sapiens) (UniProt P14416); assay: Dopamine D2 receptor (DRD2) small molecule antagonists, cell-based qHTS assay (AID 1963595; active = well fitted inhibition curve with a large enough effect in the signal ratio in the repeat runs, with a control signal flat; inconclusive = weak or mixed curves, or effect the other way; the % refers to the signal ratio); settings: HEK293-DRD2 cAMP HTRF antagonist mode; activity change, negative = inhibition: at 92.4 µM (top of the series) unless noted
Outline: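 Cells were plated and grown for 24 h at 37 °C. Ro20-1724 (0.1 mM final) went in first, then compound for 10 min. NKH477 (200 nM) with quinpirole (12 nM) followed for 30 min at RT, then HTRF detection reagents for 1 h.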
Potency is the fitted concentration of half-maximal effect.

O=Cc1ccccc1C=O
Potency [1]: inconclusive: 0.0116 µM [inhibitor, full curve, poor fit] | Potency [2]: inconclusive: 54.9 µM [activator, single point] | activity change, negative = inhibition [3]: inconclusive: 37.1% | Potency [4]: active: 43.3 µM and inconclusive: 7.5 µM [activator, full curve, poor fit]

CCCCCOC(=O)COc1cc(N2C(=O)C3=C(CCCC3)C2=O)c(F)cc1Cl
Potency [1]: inactive | Potency [5]: inconclusive: 9.42 µM [inhibitor, full curve, poor fit] | Potency [6]: inactive | activity change, negative = inhibition [7]: inconclusive: 14.3% | activity change, negative = inhibition [3]: inconclusive: -33.9% | activation [4]: inconclusive: -24.8%

O=C(O)CCSCCC(=O)O
Potency [1]: inactive | Potency [5]: inconclusive: 1.49 µM [inhibitor, single point] | activity change, negative = inhibition [3]: inconclusive: -43.5% | Potency [4]: inactive

O=C(COc1ccc(Cl)cc1)N1CCN(Cc2ccc3c(c2)OCO3)CC1
Potency [1]: active: 29.8 µM | Potency [5]: active: 37.5 µM | Potency [6]: inconclusive: 54.5 µM [rising, partial curve, poor fit] | activity change, negative = inhibition [7]: inconclusive: 18.7% [at 42.4 µM] | Potency [4]: inconclusive: 2.73 µM [inhibitor, single point] | activation [4]: inconclusive: -44.3% [at 42.5 µM]

OCC(CO)(CBr)CBr
Potency [1]: inconclusive: 0.0038 µM [inhibitor, full curve, poor fit] | Potency [5]: inactive | activation [4]: inconclusive: -31% and inconclusive: 3.58%

Nc1ccccn1
Potency [1]: active: 0.0318 µM | Potency [5]: inactive | Potency [7]: inconclusive: 65.3 µM [activator] | activation [4]: inconclusive: 34%

CCO[Si](CCCCl)(OCC)OCC
Potency [1]: inconclusive: 4.17 µM [inhibitor, single point] | Potency [6]: inactive

CC(=O)OCC(=O)[C@H]1CC[C@H]2[C@@H]3CCC4=CC(=O)CC[C@]4(C)[C@H]3CC[C@]12C
Potency [1]: inconclusive: 23.1 µM [inhibitor, single point] | Potency [5]: inconclusive: 16.3 µM [inhibitor, partial curve, poor fit] | Potency [6]: inconclusive: 29.8 µM [rising, partial curve] | activity change, negative = inhibition [7]: inconclusive: 14.7% [at 42.4 µM] | activation [4]: inconclusive: 0.303% [at 42.5 µM]

C1COC(NC(C2CC2)C2CC2)=N1
Potency [1]: inconclusive: 0.0023 µM [inhibitor, full curve, poor fit] | Potency [6]: inactive | activity change, negative = inhibition [7]: inconclusive: 0.377% [at 42.4 µM]

CC(C)Cc1ccc(C(C)C(=O)OCc2ccccn2)cc1 (stereo not given)
Potency [1]: active: 2.05 µM | Potency [5]: inconclusive: 20.5 µM [inhibitor, single point] | activity change, negative = inhibition [7]: inconclusive: -28.7% [at 42.4 µM] | Potency [4]: inactive | Potency [8]: inconclusive: 2.66 µM [rising, full curve, poor fit] | Potency [9]: inactive

Clc1cc(Cl)c(Cl)nc1Cl
Potency [1]: inconclusive: 18.9 µM [inhibitor, partial curve, poor fit] | Potency [2]: active: 24.6 µM | activation [4]: inconclusive: -5.32%

CCC(C(=O)NC(=O)NC(C)=O)c1ccccc1 (stereo not given)
Potency [1]: inconclusive: 0.0006 µM [inhibitor] | Potency [6]: inactive

CCCOc1ccc(S(=O)(=O)N2CCN(CC)CC2)cc1-c1nc2c(CC)n(Cc3ccccn3)nc2c(=O)[nH]1
Potency [1]: inconclusive: 4.21 µM [inhibitor, single point] | Potency [5]: active: 18.8 µM | Potency [6]: inconclusive: 61.1 µM [fluorescent, partial curve] | Potency [7]: inconclusive: 61.1 µM [fluorescent, single point] | Potency [3]: inconclusive: 68.6 µM [falling, partial curve, poor fit] | Potency [4]: inconclusive: 10.9 µM [inhibitor, partial curve, poor fit] | activation [8]: inconclusive: -19.6%

O=C1c2ccccc2C(=O)C1c1ccc(Br)cc1
Potency [1]: inactive | Potency [6]: inconclusive: 11.9 µM [rising, full curve]

COc1ccc(C(=O)N2CCN(CC(=O)N3CCOCC3)CC2)cc1
Potency [1]: inconclusive: 0.729 µM [inhibitor, single point] | Potency [2]: inconclusive: 1.07 µM [activator, full curve, poor fit] | Potency [4]: inactive

CCN1CCN(c2cc(-c3ccc(F)cc3)c3c(n2)CCCCCC3)CC1
Potency [1]: inconclusive: 0.0159 µM [inhibitor, full curve, poor fit] | Potency [5]: active: 0.0317 µM | activation [4]: inconclusive: 0.655% [at 19 µM] | activation [8]: inconclusive: -14.6% [at 19 µM] | Potency [9]: active: 0.0326 µM
